Article PMC3682905
These are yes or no findings as the source states them, for the method shown. In cells and extracts the contact can be indirect.

Target: KAP1/TRIM28/TIF1-β (mouse (endogenous in mESCs)), Q62318
Assay: co-IP; 200 μg nuclear extract diluted to approximately 170 mM KCl; IP overnight at 4°C with mouse monoclonal anti-KAP1, anti-G9a or mouse IgG; protein G-Dynabeads; washes in 20 mM HEPES pH 7.9, 200 mM KCl, 1% NP-40, 10% glycerol; Western blot
Settings: remark: other sources report otherwise

binding: no binding
B1: G9a, Q9Z148 1-1263 (protein)
chain: MRGLPRGRGLMRARGRGRAAPTGGRGRGRGGAHRGRGRPRSLLSLPRAQASWAPQLPAGLTGPPVPCLPSQGEAPAEMGALLLEKEPRGAAERVHSSLGDTPQSEETLPKANPDSLEPAGPSSPASVTVTVGDEGADTPVGAASLIGDEPESLEGDGGRIVLGHATKSFPSSPSKGGACPSRAKMSMTGAGKSPPSVQSLAMRLLSMPGAQGAATAGPEPSPATTAAQEGQPKVHRARKTMSKPSNGQPPIPEKRPPEVQHFRMSDDMHLGKVTSDVAKRRKLNSGSLSEDLGSAGGSGDIILEKGEPRPLEEWETVVGDDFSLYYDAYSVDERVDSDSKSEVEALAEQLSEEEEEEEEEEEEEEEEEEEEEEEEEDEESGNQSDRSGSSGRRKAKKKWRKDSPWVKPSRKRRKREPPRAKEPRGVNGVGSSGPSEYMEVPLGSLELPSEGTLSPNHAGVSNDTSSLETERGFEELPLCSCRMEAPKIDRISERAGHKCMATESVDGELLGCNAAILKRETMRPSSRVALMVLCEAHRARMVKHHCCPGCGYFCTAGTFLECHPDFRVAHRFHKACVSQLNGMVFCPHCGEDASEAQEVTIPRGDGGTPPIGTAAPALPPLAHDAPGRADTSQPSARMRGHGEPRRPPCDPLADTIDSSGPSLTLPNGGCLSAVGLPPGPGREALEKALVIQESERRKKLRFHPRQLYLSVKQGELQKVILMLLDNLDPNFQSDQQSKRTPLHAAAQKGSVEICHVLLQAGANINAVDKQQRTPLMEAVVNNHLEVARYMVQLGGCVYSKEEDGSTCLHHAAKIGNLEMVSLLLSTGQVDVNAQDSGGWTPIIWAAEHKHIDVIRMLLTRGADVTLTDNEENICLHWASFTGSAAIAEVLLNAQCDLHAVNYHGDTPLHIAARESYHDCVLLFLSRGANPELRNKEGDTAWDLTPERSDVWFALQLNRKLRLGVGNRAVRTEKIICRDVARGYENVPIPCVNGVDGEPCPEDYKYISENCETSTMNIDRNITHLQHCTCVDDCSSSNCLCGQLSIRCWYDKDGRLLQEFNKIEPPLIFECNQACSCWRSCKNRVVQSGIKVRLQLYRTAKMGWGVRALQTIPQGTFICEYVGELISDAEADVREDDSYLFDLDNKDGEVYCIDARYYGNISRFINHLCDPNIIPVRVFMLHQDLRFPRIAFFSSRDIRTGEELGFDYGDRFWDIKSKYFTCQCGSEKCKHSAEAIALEQSRLARLDPHPELLPDLSSLPPINT
